From publication PMC4407996
No constants are given. Whether binding was seen depends on the method and setting. In cells and extracts the contact can be indirect. Some entries that bind do so weakly or less than the wild type.

Chains of the proteins cited; added tags and fusions are not shown.
UniProt Q9QYF3: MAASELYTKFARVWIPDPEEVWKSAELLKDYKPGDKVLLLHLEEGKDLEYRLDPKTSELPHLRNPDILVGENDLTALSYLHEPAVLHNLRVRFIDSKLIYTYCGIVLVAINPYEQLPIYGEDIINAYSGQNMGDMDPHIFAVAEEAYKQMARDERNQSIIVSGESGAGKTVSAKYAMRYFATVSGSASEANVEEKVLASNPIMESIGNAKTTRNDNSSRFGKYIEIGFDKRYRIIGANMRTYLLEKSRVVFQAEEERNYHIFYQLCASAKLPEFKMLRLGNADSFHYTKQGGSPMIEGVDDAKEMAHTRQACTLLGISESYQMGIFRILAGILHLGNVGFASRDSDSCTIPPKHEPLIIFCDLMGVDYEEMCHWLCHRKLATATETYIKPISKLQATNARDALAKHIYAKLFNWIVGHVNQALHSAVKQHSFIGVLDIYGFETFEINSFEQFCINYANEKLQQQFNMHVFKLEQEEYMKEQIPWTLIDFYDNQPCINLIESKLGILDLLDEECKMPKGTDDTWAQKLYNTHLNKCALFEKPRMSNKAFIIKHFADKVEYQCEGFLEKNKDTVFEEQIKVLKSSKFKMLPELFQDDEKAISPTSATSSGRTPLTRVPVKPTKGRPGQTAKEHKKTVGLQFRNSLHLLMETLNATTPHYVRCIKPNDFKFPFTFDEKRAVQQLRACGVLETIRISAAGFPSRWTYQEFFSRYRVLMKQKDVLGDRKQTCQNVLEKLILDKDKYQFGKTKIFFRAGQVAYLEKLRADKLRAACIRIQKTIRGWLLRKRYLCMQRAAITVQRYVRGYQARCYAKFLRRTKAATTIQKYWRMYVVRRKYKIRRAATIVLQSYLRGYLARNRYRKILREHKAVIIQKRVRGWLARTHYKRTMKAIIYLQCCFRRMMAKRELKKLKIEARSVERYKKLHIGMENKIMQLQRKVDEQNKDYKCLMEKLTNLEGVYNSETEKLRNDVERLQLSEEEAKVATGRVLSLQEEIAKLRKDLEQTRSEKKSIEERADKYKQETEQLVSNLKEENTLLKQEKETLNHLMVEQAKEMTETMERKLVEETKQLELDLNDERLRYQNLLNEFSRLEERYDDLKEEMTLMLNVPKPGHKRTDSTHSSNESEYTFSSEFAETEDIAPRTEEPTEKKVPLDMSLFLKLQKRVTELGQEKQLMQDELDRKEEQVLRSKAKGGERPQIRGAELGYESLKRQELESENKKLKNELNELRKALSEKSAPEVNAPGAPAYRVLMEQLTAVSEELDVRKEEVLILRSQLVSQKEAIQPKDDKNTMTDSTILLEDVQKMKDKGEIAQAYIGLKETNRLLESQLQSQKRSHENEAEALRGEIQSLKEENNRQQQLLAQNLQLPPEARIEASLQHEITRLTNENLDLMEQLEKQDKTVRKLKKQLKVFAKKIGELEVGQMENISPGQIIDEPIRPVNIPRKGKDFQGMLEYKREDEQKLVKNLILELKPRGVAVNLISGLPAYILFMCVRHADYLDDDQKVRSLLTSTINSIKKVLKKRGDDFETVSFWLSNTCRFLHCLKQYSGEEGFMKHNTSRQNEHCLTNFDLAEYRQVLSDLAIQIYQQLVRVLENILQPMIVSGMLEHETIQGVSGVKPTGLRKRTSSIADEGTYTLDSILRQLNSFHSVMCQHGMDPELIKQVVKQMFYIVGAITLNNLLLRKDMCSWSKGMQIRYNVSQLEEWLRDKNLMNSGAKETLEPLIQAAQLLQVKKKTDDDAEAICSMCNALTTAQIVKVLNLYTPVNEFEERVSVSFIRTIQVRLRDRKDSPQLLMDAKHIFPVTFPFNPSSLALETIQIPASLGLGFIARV

Molecular target: Myosin Va (endogenous, neurons) (rat (endogenous in cultured neurons)) (UniProt Q9QYF3)
Assay: co-IP; precleared lysates of DIV6 or DIV9 rat hippocampal neurons incubated with Myosin Va antibody bound Protein A beads overnight at 4°C; immunoblots for TAO1 and phosphoTAO1/2

binding: binds
B1: TAO1 (endogenous, hippocampal neurons) (enzyme, UniProt O88664 1-1001)
chain: MPSTNRAGSLKDPEIAELFFKEDPEKLFTDLREIGHGSFGAVYFARDVRTNEVVAIKKMSYSGKQSTEKWQDIIKEVKFLQRIKHPNSIEYKGCYLREHTAWLVMEYCLGSASDLLEVHKKPLQEVEIAAITHGALQGLAYLHSHTMIHRDIKAGNILLTEPGQVKLADFGSASMASPANSFVGTPYWMAPEVILAMDEGQYDGKVDVWSLGITCIELAERKPPLFNMNAMSALYHIAQNESPTLQSNEWSDYFRNFVDSCLQKIPQDRPTSEELLKHMFVLRERPETVLIDLIQRTKDAVRELDNLQYRKMKKLLFQEAHNGPAVEAQEEEEEQDHGGGRTGTVNSVGSNQSIPSMSISASSQSSSVNSLPDASDDKSELDMMEGDHTVMSNSSVIHLKPEEENYQEEGDPRTRASAPQSPPQVSRHKSHYRNREHFATIRTASLVTRQMQEHEQDSELREQMSGYKRMRRQHQKQLMTLENKLKAEMDEHRLRLDKDLETQRNNFAAEMEKLIKKHQASMEKEAKVMANEEKKFQQHIQAQQKKELNSFLESQKREYKLRKEQLKEELNENQSTPKKEKQEWLSKQKENIQHFQAEEEANLLRRQRQYLELECRRFKRRMLLGRHNLEQDLVREELNKRQTQKDLEHAMLLRQHESMQELEFRHLNTIQKMRCELIRLQHQTELTNQLEYNKRRERELRRKHVMEVRQQPKSLKSKELQIKKQFQDTCKIQTRQYKALRNHLLETTPKSEHKAVLKRLKEEQTRKLAILAEQYDHSINEMLSTQALRLDEAQEAECQVLKMQLQQELELLNAYQSKIKMQAEAQHDRELRELEQRVSLRRALLEQKIEEEMLALQNERTERIRSLLERQAREIEAFDSESMRLGFSNMVLSNLSPEAFSHSYPGASSWSHNPTGGSGPHWGHPMGGTPQAWGHPMQGGPQPWGHPSGPMQGVPRGSSIGVRNSPQALRRTASGGRTEQGMSRSTSVTSQISNGSHMSYT
